Values of other authors, collected in patent US8394845B2, “Method of using combination preparation comprising angiotensin-II-receptor blocker and HMG-CoA reductase inhibitor” (Hanall Biopharma Co., Ltd., priority 2006, dated 2013).

The chains behind the UniProt entries cited, without tags or fusion partners.
UniProt P08183, whole entry: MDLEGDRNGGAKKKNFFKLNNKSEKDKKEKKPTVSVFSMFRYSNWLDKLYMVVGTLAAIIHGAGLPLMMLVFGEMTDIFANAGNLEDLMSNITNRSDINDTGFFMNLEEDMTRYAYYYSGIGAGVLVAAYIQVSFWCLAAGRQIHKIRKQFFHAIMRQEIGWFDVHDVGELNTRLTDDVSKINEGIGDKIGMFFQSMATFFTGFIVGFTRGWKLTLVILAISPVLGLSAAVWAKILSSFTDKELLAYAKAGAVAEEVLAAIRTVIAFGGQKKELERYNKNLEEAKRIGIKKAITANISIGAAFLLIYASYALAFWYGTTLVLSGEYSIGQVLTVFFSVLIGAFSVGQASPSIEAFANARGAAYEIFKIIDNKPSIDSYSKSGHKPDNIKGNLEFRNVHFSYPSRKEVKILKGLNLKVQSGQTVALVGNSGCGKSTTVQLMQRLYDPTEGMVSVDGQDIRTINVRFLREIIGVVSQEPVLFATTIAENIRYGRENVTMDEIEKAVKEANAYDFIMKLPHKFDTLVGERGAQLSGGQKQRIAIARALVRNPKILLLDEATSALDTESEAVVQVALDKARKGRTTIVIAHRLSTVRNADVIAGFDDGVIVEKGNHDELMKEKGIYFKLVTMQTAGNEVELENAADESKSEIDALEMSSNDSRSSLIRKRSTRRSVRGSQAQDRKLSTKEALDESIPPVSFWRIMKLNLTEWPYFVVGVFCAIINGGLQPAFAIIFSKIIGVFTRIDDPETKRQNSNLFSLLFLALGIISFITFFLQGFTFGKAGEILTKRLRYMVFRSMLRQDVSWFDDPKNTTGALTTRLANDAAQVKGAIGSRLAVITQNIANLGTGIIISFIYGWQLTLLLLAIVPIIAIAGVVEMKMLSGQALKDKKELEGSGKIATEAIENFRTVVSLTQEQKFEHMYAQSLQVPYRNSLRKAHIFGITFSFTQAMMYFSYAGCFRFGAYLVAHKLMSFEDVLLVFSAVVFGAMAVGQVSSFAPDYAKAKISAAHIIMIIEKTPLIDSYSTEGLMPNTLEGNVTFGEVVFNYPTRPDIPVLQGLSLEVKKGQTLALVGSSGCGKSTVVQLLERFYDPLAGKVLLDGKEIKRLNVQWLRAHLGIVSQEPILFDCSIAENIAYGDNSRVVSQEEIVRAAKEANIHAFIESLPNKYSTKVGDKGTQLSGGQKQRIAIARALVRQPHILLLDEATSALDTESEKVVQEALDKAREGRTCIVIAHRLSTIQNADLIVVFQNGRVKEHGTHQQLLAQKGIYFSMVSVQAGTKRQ

Target: P-Glycoprotein transporter (Homo sapiens, UniProt P08183)
Conditions: reported by Pailwal et al

substrate of P-Glycoprotein transporter: substrates of P-Glycoprotein transporter
Structure (SMILES): CC(C)c1c(C(=O)Nc2ccccc2)c(-c2ccccc2)c(-c2ccc(F)cc2)n1CC[C@@H](O)C[C@@H](O)CC(=O)O [atorvastatin]
